# For at least one entry, the source does not settle the construct or the ends of the probe. For some of these results: The comparison behind a weaker result is the experiment's own reference, which may not be listed here. For some of these results: At least one verdict rests on a figure or table, not on a statement of the authors.
# How the values were obtained:
# Test in all cases: pull-down (Ni-agarose RNA retention)
# [1] = system: RNA polymerase core (EcoRNAP) (Escherichia coli); conditions: 1 M NaCl wash, reduced retention; 40 mM HEPES pH 7.9, 5 mM MgCl2, 50 mM NaCl, 5% glycerol; binding to Ni-NTA at 18 C, washes with 250 mM NaCl (1 M for core controls), labeling at 22 C; recombinant protein; protein details: C-terminal 6xHis on rpoC; label: [alpha-32P]-UTP added after binding; letters put together from the description
# [2] = system: RNA polymerase core (EcoRNAP) + sigma70 delta4; conditions: similar result to LDT; 40 mM HEPES pH 7.9, 5 mM MgCl2, 50 mM NaCl, 5% glycerol; binding to Ni-NTA at 18 C, washes with 250 mM NaCl (1 M for core controls), labeling at 22 C; recombinant protein; protein details: C-terminal 6xHis on rpoC,N-terminal 6xHis; label: [alpha-32P]-UTP added after binding; letters put together from the description
# [3] = system: RNA polymerase core (EcoRNAP) + sigma70; conditions: similar result to LDT; 40 mM HEPES pH 7.9, 5 mM MgCl2, 50 mM NaCl, 5% glycerol; binding to Ni-NTA at 18 C, washes with 250 mM NaCl (1 M for core controls), labeling at 22 C; recombinant protein; protein details: C-terminal 6xHis on rpoC,N-terminal 6xHis; label: [alpha-32P]-UTP added after binding; letters put together from the description
Sequence,binding result [1],binding result [2],binding result [3]
GUCGC / TGCAATTGTCAGCGACTCA / ACAATTGCA [SDT scaffold + pRNA5],binds more weakly,–,–
AGUCGC / TGCAATTGTCAGCGACTCA / ACAATTGCA [SDT scaffold + pRNA6],binds more weakly,–,–
UCGC / TGCAATTGTCAGCGACTCA / ACAATTGCA [SDT scaffold + pRNA4],–,binds more weakly,binds
